{"source": "PubChem BioAssay AID652272 – Drosophila RNAi Screening Center – 2013", "test": "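Genome-wide knock-down search for components of Hedgehog signalling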 (primary screen)", "cells": "Drosophila clone 8 (Cl8) cells", "reagents": "long dsRNA against Drosophila genes", "measured": "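Plate reader light from a firefly reporter under a ptc promoter fragment that responds to Hedgehog, with Renilla light as transfection reference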", "direction": "firefly Hh reporter signal: higher = more ptc reporter light; Renilla reference signal: higher = more Renilla control light", "hit rule": "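Hit when the z-score averaged over two replicates is under -2 or over +3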", "meaning of the calls": "active = hit: reporter lowered or raised; inactive = not a hit", "note": "The deposit covers about 21,000 reagents; below is an unselected part of those with a known target gene and a result. Of all reagents, 503 (2.4%) are marked active. 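Raw plate light values, not normalised; calls rest on replicate z-scores that were not deposited; hits include reporter decreases as well as increases.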 The record does not give: the amount of reagent, the time to read-out."}
{"gene": "MsR2", "amplicon": "DRSC08336", "firefly Hh reporter signal, replicate 1": 1.34e5, "firefly Hh reporter signal, replicate 2": 77912, "Renilla reference signal, replicate 1": 3399, "Renilla reference signal, replicate 2": 5424, "outcome": "inactive"}
{"gene": "MsR2", "amplicon": "DRSC08337", "firefly Hh reporter signal, replicate 1": 53367, "firefly Hh reporter signal, replicate 2": 37629, "Renilla reference signal, replicate 1": 1797, "Renilla reference signal, replicate 2": 3056, "outcome": "inactive"}
{"gene": "Mrm2", "amplicon": "DRSC14310", "firefly Hh reporter signal, replicate 1": 5.90e5, "firefly Hh reporter signal, replicate 2": 1.00e5, "Renilla reference signal, replicate 1": 28480, "Renilla reference signal, replicate 2": 2874, "outcome": "inactive"}
{"gene": "wwk", "amplicon": "DRSC01941", "firefly Hh reporter signal, replicate 1": 1.22e5, "firefly Hh reporter signal, replicate 2": 68960, "Renilla reference signal, replicate 1": 3013, "Renilla reference signal, replicate 2": 6376, "outcome": "inactive"}
{"gene": "CG3708", "amplicon": "DRSC18646", "firefly Hh reporter signal, replicate 1": 1.11e5, "firefly Hh reporter signal, replicate 2": 3.37e5, "Renilla reference signal, replicate 1": 3504, "Renilla reference signal, replicate 2": 10470, "outcome": "inactive"}
{"gene": "CG5742", "amplicon": "DRSC06949", "firefly Hh reporter signal, replicate 1": 1.50e5, "firefly Hh reporter signal, replicate 2": 89828, "Renilla reference signal, replicate 1": 6535, "Renilla reference signal, replicate 2": 4501, "outcome": "inactive"}
{"gene": "rin", "amplicon": "DRSC17045", "firefly Hh reporter signal, replicate 1": 43802, "firefly Hh reporter signal, replicate 2": 53708, "Renilla reference signal, replicate 1": 1685, "Renilla reference signal, replicate 2": 1845, "outcome": "inactive"}
{"gene": "Hydr1", "amplicon": "DRSC07063", "firefly Hh reporter signal, replicate 1": 4.49e5, "firefly Hh reporter signal, replicate 2": 87538, "Renilla reference signal, replicate 1": 4460, "Renilla reference signal, replicate 2": 4460, "outcome": "inactive"}
{"gene": "Acp29AB", "amplicon": "DRSC01857", "firefly Hh reporter signal, replicate 1": 65877, "firefly Hh reporter signal, replicate 2": 35430, "Renilla reference signal, replicate 1": 1994, "Renilla reference signal, replicate 2": 4940, "outcome": "inactive"}
{"gene": "tHMG2", "amplicon": "DRSC16182", "firefly Hh reporter signal, replicate 1": 8.18e5, "firefly Hh reporter signal, replicate 2": 1.61e5, "Renilla reference signal, replicate 1": 46364, "Renilla reference signal, replicate 2": 551, "outcome": "inactive"}
{"gene": "Rh6", "amplicon": "DRSC16823", "firefly Hh reporter signal, replicate 1": 64947, "firefly Hh reporter signal, replicate 2": 1.14e5, "Renilla reference signal, replicate 1": 2333, "Renilla reference signal, replicate 2": 3335, "outcome": "inactive"}
{"gene": "CG12084", "amplicon": "DRSC08247", "firefly Hh reporter signal, replicate 1": 1.49e5, "firefly Hh reporter signal, replicate 2": 1.26e5, "Renilla reference signal, replicate 1": 7665, "Renilla reference signal, replicate 2": 4819, "outcome": "inactive"}
{"gene": "enok", "amplicon": "DRSC04096", "firefly Hh reporter signal, replicate 1": 1.45e5, "firefly Hh reporter signal, replicate 2": 1.14e5, "Renilla reference signal, replicate 1": 4524, "Renilla reference signal, replicate 2": 3632, "outcome": "inactive"}
{"gene": "ClpX", "amplicon": "DRSC15592", "firefly Hh reporter signal, replicate 1": 74764, "firefly Hh reporter signal, replicate 2": 87094, "Renilla reference signal, replicate 1": 3456, "Renilla reference signal, replicate 2": 3314, "outcome": "inactive"}
{"gene": "hdm", "amplicon": "DRSC18013", "firefly Hh reporter signal, replicate 1": 69795, "firefly Hh reporter signal, replicate 2": 1.78e5, "Renilla reference signal, replicate 1": 1767, "Renilla reference signal, replicate 2": 6740, "outcome": "inactive"}
{"gene": "CG42699", "amplicon": "DRSC18076", "firefly Hh reporter signal, replicate 1": 88672, "firefly Hh reporter signal, replicate 2": 68759, "Renilla reference signal, replicate 1": 2027, "Renilla reference signal, replicate 2": 1770, "outcome": "inactive"}
{"gene": "CG42699", "amplicon": "DRSC18341", "firefly Hh reporter signal, replicate 1": 1.40e5, "firefly Hh reporter signal, replicate 2": 3.32e5, "Renilla reference signal, replicate 1": 4740, "Renilla reference signal, replicate 2": 12071, "outcome": "inactive"}
{"gene": "CG33673", "amplicon": "DRSC00084", "firefly Hh reporter signal, replicate 1": 6.66e5, "firefly Hh reporter signal, replicate 2": 3.05e5, "Renilla reference signal, replicate 1": 33298, "Renilla reference signal, replicate 2": 12419, "outcome": "inactive"}
{"gene": "pita", "amplicon": "DRSC04006", "firefly Hh reporter signal, replicate 1": 1.53e5, "firefly Hh reporter signal, replicate 2": 1.92e5, "Renilla reference signal, replicate 1": 2997, "Renilla reference signal, replicate 2": 7011, "outcome": "inactive"}
{"gene": "pita", "amplicon": "DRSC04435", "firefly Hh reporter signal, replicate 1": 1.02e5, "firefly Hh reporter signal, replicate 2": 54387, "Renilla reference signal, replicate 1": 3485, "Renilla reference signal, replicate 2": 2045, "outcome": "inactive"}
{"gene": "CG4836", "amplicon": "DRSC15659", "firefly Hh reporter signal, replicate 1": 1.11e5, "firefly Hh reporter signal, replicate 2": 82458, "Renilla reference signal, replicate 1": 4208, "Renilla reference signal, replicate 2": 3696, "outcome": "inactive"}

Entries above whose target name starts with R or r (2):
{"gene": "rin", "amplicon": "DRSC17045", "firefly Hh reporter signal, replicate 1": 43802, "firefly Hh reporter signal, replicate 2": 53708, "Renilla reference signal, replicate 1": 1685, "Renilla reference signal, replicate 2": 1845, "outcome": "inactive"}
{"gene": "Rh6", "amplicon": "DRSC16823", "firefly Hh reporter signal, replicate 1": 64947, "firefly Hh reporter signal, replicate 2": 1.14e5, "Renilla reference signal, replicate 1": 2333, "Renilla reference signal, replicate 2": 3335, "outcome": "inactive"}
